This note sets out measurements from PubChem BioAssay AID662 (National Center for Advancing Translational Sciences (NCATS), 2007).

The other results are listed elsewhere or left out. Further columns of the screen follow, without active or inactive calls. The list favours compounds with an active or inconclusive main result. Potencies come from curve fits of mixed quality, noted in brackets.

The assay in a line: Cell signaling CRE-BLA (Fsk stim). The conditions noted are these: CHO CRE-bla reporter (cAMP response element driving beta-lactamase), forskolin EC10, beta-lactamase ratio; measured here: 460 nm blue channel. The source says: NIH Molecular Libraries Screening Centers Network [MLSCN]
NIH Chemical Genomics Center [NCGC]
Assay Provider: Marshall W. Nirenberg, U.S. National heart lung & blood institute
Memories persist for different lengths of time, from seconds or minutes to a lifetime. There are two kinds of memory: short-term memory (STM) and long-term memory (LTM). STM lasts for minutes to hours, which maybe mediated by modifications of molecules involved in synaptic functions. LTM lasts for days or longer, and may be due to the formation of new synapses or restructuring of existing synapses. LTM, but not STM, requires gene transcription and synthesis of proteins. CREB (cyclic-AMP Responsive Element Binding Protein) is one of the candidates plays an important role for enhancement of some types of LTM. CREB, a family of transcription factors, regulates the transcription of genes containing cAMP Responsive Elements (CRE). CRE is a nucleotide sequence often found in the promoter regions of genes that are binding sites for CREB.
Using a beta-lactamase reporter-gene under control of cAMP responsive element, a cell-based assay [CellSensor(TM) CRE-bla CHO developed by Invitrogen Corp.] was used to measure forskolin-induced signaling. Library compounds were measured for their ability to modulate positively or negatively the action of EC10 NKH 477, a water soluble forskolin, on reporter gene activity. Compounds were screened in a titration series in 1536-well format. Positive and negative modulators were identified based on the AC50 values derived from the screening data.
NCGC Assay Protocol Summary
2000 cells/5uL in Opti-MEM medium containing 0.5% dialyzed FBS, 0.1 mM NEAA, 1 mM sodium pyruvate and 10 mM HEPES was dispensed into 1536-well plates and cells were cultured at 37 degrees Celsius overnight. […] And then the plates were incubated at 37 degrees Celsius for 3 hours. 1 uL of CCF4-dye mixture was added to each well. After incubated at room temperature for 2 hours the plates were measured on an EnVision plate reader at Excitation 405nm, Emission1=460nm and Emission 2=530nm. The %Activity was determined from the ratio of 460nm/530nm.
Keywords: NIH Roadmap, MLSCN, MLSMR, qHTS, NCGC, CRE, beta-lactamase reporter-gene assay.
Turning to `COc1ccc(CCNS(=O)(=O)c2ccc3c(c2)CCN3C(=O)CCC(=O)O)cc1OC`, the concentration at half-maximal activity (AC50) – broadly, the concentration at which the activity in the assay is half-maximal – is 0.631 µM [falling, full curve, poor fit].
With `Cc1c(C(=O)Nc2c(C)n(C)n(-c3ccccc3)c2=O)oc2ccccc12`, the half-maximal activity concentration (AC50) is 0.631 µM [falling, partial curve].
With `Cc1cc(-c2ccccc2)c(C#N)c(SCC(N)=O)n1`, the AC50 is 10 µM [rising, single point].
As for `CCCCCCn1c(CN2CCN(CCO)CC2)nc2c1c(=O)n(C)c(=O)n2C`, the AC50 is 10 µM [rising, partial curve].
With `C=CCNc1nc(-c2ccccc2)nc(-n2ccnc2)n1`, the AC50 is 5.01 µM [rising, partial curve].
`CCC(=O)Nc1c(C#N)c2nc3ccccc3nc2n1-c1ccccc1C`: the concentration at half-maximal activity (AC50) was 12.6 µM [rising, partial curve].
With `Cc1ccc(-n2nc(-c3cccs3)cc2C(=O)NCC2CCCO2)c(C)c1` (centres undefined), the AC50 was 3.16 µM [falling, partial curve].
Turning to `Cn1c(=O)c(-c2cc(F)cc(F)c2)nc2cnc(N3CCNCC3)nc21`, the AC50 was 5.01 µM [rising, partial curve].
For `CCSc1nc2c(c(=O)[nH]c(=O)n2C)n1C/C=C(/C)Cl`, the AC50 was 2 µM [rising, full curve].
On to `CCc1c(C)nc2ncnn2c1N1CCCC(C(=O)NCCc2ccccc2)C1` (centres undefined), for which the AC50 is 10 µM [rising, single point].
For `Cc1ccc(C(=O)OCC(=O)Nc2sc3c(c2C#N)CCCCC3)cc1NC(=O)c1ccco1` the value was 5.01 µM [falling, single point]; for `Cc1cc(NC(=O)c2cc3nc(C4CC4)cc(C(F)(F)F)n3n2)no1`, 12.6 µM [rising, single point]; for `COc1ccc(CCN2C(=O)c3[nH]nc(-c4ccccc4O)c3C2c2ccc(C)cc2)cc1OC` (centres undefined), 25.1 µM [falling, single point].
As to `CCOC(=O)c1c(C)oc2ccc(OC(=O)N3CCOCC3)cc12`, the AC50 is 12.6 µM [rising, partial curve].
Consider `O=C(C1CC1)n1cc(C(=S)N2CCOCC2)c2ccccc21`, for which the AC50 was 12.6 µM [rising, partial curve].
For `Cc1ccc(S(=O)(=O)n2nc(C)c(Br)c2C)c(C)c1C` the value was 0.0631 µM [falling, full curve].
Take `Cc1ccccc1-c1ccc2ncnc(NCCN3CCOCC3)c2c1`: the AC50 was 12.6 µM [rising, partial curve].
For `CCC1CCCCN1Cc1nc2c(c(=O)n(C)c(=O)n2C)n1CCCc1ccccc1` (centres undefined), the AC50 was 25.1 µM [rising, single point].
For `O=C(CCC1CCCC1)c1c(O)c2ccccc2oc1=O` the value was 12.6 µM [falling, single point].
